In PMC8989918 one finds binding data, which are given here for one substance.

Protein sequences, listed by entry. Tags and fused reporters are not part of them. Lines headed by an entry give the natural chain unless they say otherwise; changes in a name come on top. Chains listed by the source or under a name are the forms on record and can include a tag or linker.
Csk K43D, epitope-tagged (Csk^Myc and Csk^HA, both K43D) (P41241, form named): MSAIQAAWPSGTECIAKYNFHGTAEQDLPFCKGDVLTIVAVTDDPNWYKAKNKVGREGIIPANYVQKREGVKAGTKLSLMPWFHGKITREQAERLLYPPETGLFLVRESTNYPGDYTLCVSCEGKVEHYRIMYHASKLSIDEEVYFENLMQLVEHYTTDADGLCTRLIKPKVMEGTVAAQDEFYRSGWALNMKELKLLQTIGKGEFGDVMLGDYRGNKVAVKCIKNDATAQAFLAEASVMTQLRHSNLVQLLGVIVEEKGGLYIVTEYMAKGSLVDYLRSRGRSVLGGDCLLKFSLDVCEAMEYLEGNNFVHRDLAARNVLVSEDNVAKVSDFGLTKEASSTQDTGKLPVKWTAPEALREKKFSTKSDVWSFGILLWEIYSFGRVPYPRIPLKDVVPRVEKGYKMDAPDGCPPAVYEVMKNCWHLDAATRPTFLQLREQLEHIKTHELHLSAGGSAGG

No constants are given. Whether binding was seen depends on the method and setting. Binding seen in cells or lysates may run through a third protein. Some results given as binding are weak or reduced against the parent protein; the word gives no strength.

The assay addresses Csk K43D, epitope-tagged (Csk^Myc and Csk^HA, both K43D) (mouse) (UniProt P41241). The experiment in a line: co-IP; anti-Myc (9B11) immunoprecipitation on Protein-A sepharose, 2 h at 4 °C, from lysates of Jurkat cells co-transfected with Csk^Myc and Csk^HA; lysis buffer 1% lauryl maltoside, 150 mM NaCl, 0.4 mM EDTA, 10 mM Tris pH 7.5; blots for HA, Myc and endogenous PTPN22; densitometry corrected for Csk^Myc pulldown, relative to WT.

As to “Csk K43D, epitope-tagged (Csk^Myc and Csk^HA, both K43D) (from UniProt P41241 1-450)”, the binding entry is “binds”.
